Experimental findings from paper PMC7139822, “Flumazenil-Insensitive Benzodiazepine Effects in Recombinant αβ and Neuronal GABAA Receptors” (Brain Sciences, 2020) are described below.

The chains behind the UniProt entries cited, without tags or fusion partners. Residues count along the entry.
UniProt P20236, 29-493: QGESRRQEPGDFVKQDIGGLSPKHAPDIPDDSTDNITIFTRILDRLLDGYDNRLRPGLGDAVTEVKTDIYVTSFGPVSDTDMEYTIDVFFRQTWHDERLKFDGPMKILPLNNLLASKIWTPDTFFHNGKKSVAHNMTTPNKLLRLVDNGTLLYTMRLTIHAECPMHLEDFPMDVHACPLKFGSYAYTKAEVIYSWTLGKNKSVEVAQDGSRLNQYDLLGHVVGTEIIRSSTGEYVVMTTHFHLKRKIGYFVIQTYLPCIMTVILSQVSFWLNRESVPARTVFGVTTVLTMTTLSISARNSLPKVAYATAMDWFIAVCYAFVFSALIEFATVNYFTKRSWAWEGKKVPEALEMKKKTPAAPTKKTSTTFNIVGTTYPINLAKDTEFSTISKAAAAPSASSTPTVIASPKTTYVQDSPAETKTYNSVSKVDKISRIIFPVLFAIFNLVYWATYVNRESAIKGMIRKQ
UniProt P63138, 26-474: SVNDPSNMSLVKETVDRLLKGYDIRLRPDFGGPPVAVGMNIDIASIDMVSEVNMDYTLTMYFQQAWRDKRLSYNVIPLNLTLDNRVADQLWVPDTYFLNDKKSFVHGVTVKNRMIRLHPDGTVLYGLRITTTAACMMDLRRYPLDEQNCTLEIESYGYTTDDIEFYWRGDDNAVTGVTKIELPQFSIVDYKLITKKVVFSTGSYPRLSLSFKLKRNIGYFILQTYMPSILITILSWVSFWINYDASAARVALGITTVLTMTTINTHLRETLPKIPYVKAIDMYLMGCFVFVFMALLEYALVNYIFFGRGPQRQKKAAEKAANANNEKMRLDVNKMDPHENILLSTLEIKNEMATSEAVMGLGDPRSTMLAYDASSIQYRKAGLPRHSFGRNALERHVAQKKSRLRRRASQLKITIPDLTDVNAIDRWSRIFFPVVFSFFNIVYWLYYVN
UniProt P19969, 26-464: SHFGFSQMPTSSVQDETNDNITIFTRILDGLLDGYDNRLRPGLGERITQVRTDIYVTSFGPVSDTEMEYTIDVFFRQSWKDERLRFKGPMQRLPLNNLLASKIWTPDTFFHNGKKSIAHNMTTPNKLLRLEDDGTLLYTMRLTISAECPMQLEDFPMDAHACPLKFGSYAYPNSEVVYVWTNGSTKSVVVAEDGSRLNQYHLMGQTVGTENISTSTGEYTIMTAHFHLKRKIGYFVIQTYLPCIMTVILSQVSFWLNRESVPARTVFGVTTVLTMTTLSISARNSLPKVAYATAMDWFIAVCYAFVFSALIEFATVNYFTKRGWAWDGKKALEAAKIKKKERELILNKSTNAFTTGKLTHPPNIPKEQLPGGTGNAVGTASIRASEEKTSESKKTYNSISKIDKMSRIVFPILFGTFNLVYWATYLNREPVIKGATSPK
UniProt P23576, 29-451: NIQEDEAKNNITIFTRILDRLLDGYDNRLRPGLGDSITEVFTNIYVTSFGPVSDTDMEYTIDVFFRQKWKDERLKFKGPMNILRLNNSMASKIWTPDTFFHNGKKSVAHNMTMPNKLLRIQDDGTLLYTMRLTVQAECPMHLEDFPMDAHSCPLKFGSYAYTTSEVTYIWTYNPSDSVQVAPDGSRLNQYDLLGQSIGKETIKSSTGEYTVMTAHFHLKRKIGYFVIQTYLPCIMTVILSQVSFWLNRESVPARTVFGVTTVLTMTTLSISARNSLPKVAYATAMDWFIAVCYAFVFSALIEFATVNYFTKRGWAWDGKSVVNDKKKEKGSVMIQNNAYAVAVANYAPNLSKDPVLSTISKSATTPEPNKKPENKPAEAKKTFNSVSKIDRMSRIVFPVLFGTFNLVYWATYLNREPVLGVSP
UniProt P62813, 28-455: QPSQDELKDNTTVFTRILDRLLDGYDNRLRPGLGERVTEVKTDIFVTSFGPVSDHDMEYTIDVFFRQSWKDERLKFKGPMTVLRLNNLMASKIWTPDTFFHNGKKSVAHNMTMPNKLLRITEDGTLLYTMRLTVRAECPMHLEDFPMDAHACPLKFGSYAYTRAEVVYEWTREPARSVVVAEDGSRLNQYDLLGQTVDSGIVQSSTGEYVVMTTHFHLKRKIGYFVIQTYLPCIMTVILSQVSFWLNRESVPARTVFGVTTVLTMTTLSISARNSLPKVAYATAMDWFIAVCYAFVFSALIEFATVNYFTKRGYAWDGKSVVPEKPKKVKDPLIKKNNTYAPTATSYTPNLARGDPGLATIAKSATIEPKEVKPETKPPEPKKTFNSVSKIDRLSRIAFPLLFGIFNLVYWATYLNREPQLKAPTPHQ

One assay addresses T1, α3β2 receptor (Rattus norvegicus, UniProt P20236+P63138).
T1 construct: gene Gabra3
Particulars: 200 µM; positive allosteric modulator, non-classical site; co-applied with 0.5 μmol/L GABA; −60 mV; pH 7.4.

The target of a further assay is T2, α5β2 receptor (Rattus norvegicus, UniProt P19969+P63138).
T2 construct: gene Gabra5
The settings on record: 200 µM; positive allosteric modulator, non-classical site; co-applied with 0.5 μmol/L GABA; −60 mV; pH 7.4.

The target of another assay is T3, α2β2 receptor (Rattus norvegicus, UniProt P23576+P63138).
T3 construct: gene Gabra2
The settings on record: 200 µM; positive allosteric modulator, non-classical site; co-applied with 1 μmol/L GABA; −60 mV; pH 7.4.

In a further assay the target is α1β2 receptor (Rattus norvegicus, UniProt P62813+P63138). More on the design: gene Gabra1. Particulars: 200 µM; positive allosteric modulator, non-classical site; co-applied with 0.1 μmol/L GABA; −60 mV; pH 7.4.

Each structure is given as a SMILES string.

Turning to `CN1C(=O)CN=C(c2ccccc2)c2cc(Cl)ccc21` [Diazepam], the “Potentiation of GABA Currents (%) / (Diazepam)” value on α3β2 receptor is reported as 183.2 ± 21.1%; at α5β2 receptor it was 316.2 ± 75.2%; at α2β2 receptor, 213.3 ± 26.7%; at α1β2 receptor, 214.0 ± 31.4%.
